Results as given in article PMC8317666 (Chemical Science, 2021).
Non-standard residues stand in square brackets, D forms with d. Dha = C=C(N)C(=O)O

Test: general procedure: Fmoc solid-phase peptide synthesis
Conditions: late stage modification step

Row | Substance | step yield
1 | Ac-GP[Dha]F-NH2 | 51.2%
2 | H-G[Dha]HWSYGMRPK-OH | 22.7%
